# Assay results as given in PubChem BioAssay AID540256 (National Center for Advancing Translational Sciences (NCATS), 2011).
# About 3,700 (1.2%) of roughly 300,000 compounds were called active. This list was built around the results that the source calls inconclusive (neither active nor inactive); the mix of calls is not that of the screen. The call rests on the fitted dose curve; tested in HEK293 cells. A potency beside an inconclusive call is a rough fit, not a confirmed value.
# Test: qHTS for Inhibitors of binding or entry into cells for Lassa Virus; further: nearly all actives have a fitted effect of over 50% in size
# Conditions: Lassa virus pseudotype entry inhibition, cell reporter; activity change, negative = inhibition: at 37.9 µM (top of the series) unless noted
# On the % scale 0 is the no-effect control and ±100 the full control effect; potency means the concentration at half of the fitted maximal effect.
Structure (SMILES),Potency,"activity change, negative = inhibition"
CCCCS(=O)(=O)c1oc(-c2cccs2)nc1S(=O)(=O)c1ccccc1,"inconclusive: 11.2 µM [inhibitor, single point]",
Cc1nn(-c2ccccc2)c(N2CCCC2)c1/C=N/n1cnc2scc(-c3ccccc3)c2c1=O,"inconclusive: 6.31 µM [inhibitor, single point]",
Cc1ccc(S(=O)(=O)N2CCN(c3ncnc4sccc34)CC2)cc1C,"inconclusive: 6.31 µM [inhibitor, partial curve, poor fit]",
O=C(NCCc1ccc(Cl)cc1)C1CCN(S(=O)(=O)c2cccc3nonc23)CC1,,inactive: -6.49%
COc1cccc(C(=O)Nc2ccc3nc(SCC(=O)N4CCOCC4)sc3c2)c1,,inactive: 4.01% [at 46.1 µM]
COc1ccc(C2CC(=O)C3=C(C2)NC(C)=C(C#N)C3c2ccc(N(C)C)cc2)cc1 (stereo not drawn),active: 12.6 µM,
COc1ccc(C(=O)Nc2ccc(-c3ccc(C)o3)cc2)cc1S(=O)(=O)N1CCOCC1,active: 7.94 µM,
Cc1nn(-c2ccccc2)c(C)c1C(=O)OCC(=O)c1c(N)n(CC(C)C)c(=O)n(C)c1=O,active: 6.51 µM,
CCn1cnc2sc(C(=O)N(Cc3ccc(N(C)C)cc3)Cc3ccco3)c(C)c2c1=O,"inconclusive: 7.08 µM [inhibitor, partial curve, poor fit]",
CCCOc1ccc(-c2c(=O)n(OCc3ccc([N+](=O)[O-])cc3)c3ccccc3[n+]2[O-])cc1,"inconclusive: 0.708 µM [activator, partial curve, poor fit]",
Cc1cc(C)c2oc(C(=O)Nc3ccc(S(=O)(=O)N4CCCCC4)cc3)cc(=O)c2c1,,inactive: 2.59% [at 46.1 µM]
COc1cc(C(=O)NC(C)Cc2cccs2)cc(OC)c1OC (stereo not drawn),"inconclusive: 6.31 µM [inhibitor, partial curve, poor fit]",
Cn1cc(-c2ccc(Cl)cc2)cc(C#N)c1=O,,inactive: 7.85%
Cc1ccc(S(=O)(=O)NCCCN2CCOCC2)cc1C,,inactive: -27.7%
CCOc1ccc(C(=O)NCC(=O)NCCCSc2ccccc2)cc1OCC,,inactive: -1.13%
CC1C(C)N(C(=O)CCl)c2ccccc2N1C(=O)CCl (stereo not drawn),"inconclusive: 12.6 µM [inhibitor, partial curve, poor fit]",
CCN(CC)S(=O)(=O)c1ccc2oc(C(=O)NCc3ccc(C)cc3)c(C)c2c1,"inconclusive: 9.2 µM [inhibitor, partial curve, poor fit]",
COc1cccc(NS(=O)(=O)c2ccc3c(c2)C2C=CCC2C(c2ccc(C(=O)O)cc2)N3)c1 (stereo not drawn),"inconclusive: 0.0651 µM [inhibitor, full curve, poor fit]",
O=C(COC(=O)c1c(Cl)cccc1Cl)NC1CCCCC1,"inconclusive: 11.2 µM [inhibitor, single point]",
Oc1ccccc1C=NNc1nc2ccccc2s1,"inconclusive: 35.5 µM [inhibitor, single point]",
Cc1ccc(NC2SC(=O)N(Cc3cccc(C(=O)O)c3)C2=O)c(C)c1 (stereo not drawn),,inconclusive: 2.57% [activator] [at 46.1 µM]
O=C(CNC(=O)c1ccccc1F)OCc1csc(-c2ccccc2)n1,,inactive: 6.35%

Structure (SMILES),Potency,"activity change, negative = inhibition"
O=c1[nH]c(=S)[nH]c(O)c1N=Nc1ccc(SC(F)F)cc1,active: 3.98 µM,
COc1cc(/C=C/c2nc(C#N)c(N3CCCCCC3)o2)cc(OC)c1OC,"inconclusive: 17.8 µM [inhibitor, single point]",
CN(C(=O)CSc1nc2ccc(NC(=O)COc3ccc(Cl)cc3)cc2s1)c1ccccc1,"inconclusive: 11.2 µM [inhibitor, single point]",
CCCCNC(=S)N=Nc1c(O)[nH]c2ccccc12,,inactive: -29.9% [at 46.1 µM]
Fc1ccc(NC(=S)Nc2ccc(Br)cc2)cc1,"inconclusive: 35.5 µM [inhibitor, single point]",
O=S(=O)(Nc1ccccc1C(F)(F)F)c1ccc(N2CCCCS2(=O)=O)cc1,"inconclusive: 3.55 µM [activator, full curve]",
CN(Cc1ccccc1)C(=O)c1ccc2c(c1)N(Cc1ccccc1F)C(=O)c1ccccc1S2(=O)=O,"inconclusive: 20 µM [inhibitor, single point]",
CC(c1nccs1)N(C)C(=O)CCc1nnc(CCc2ccccc2)o1 (stereo not drawn),,inactive: 8.37% [at 46.1 µM]
COc1ccc(-c2cc(C(=O)Nc3c(C)nn(Cc4ccc(Cl)cc4)c3C)no2)cc1,,inactive: -6.42%
CCOC(=O)c1ccc(-n2c(C)nc3c(cnn3-c3ccccc3Cl)c2=O)cc1,"inconclusive: 9.2 µM [inhibitor, partial curve, poor fit]",
FC(F)(F)c1cc(NC(=S)NC23CC4CC(CC(C4)C2)C3)cc(C(F)(F)F)c1,"inconclusive: 5.96 µM [inhibitor, single point]",
CCN(CC)C(=O)CSc1nc2c(sc(=S)n2-c2ccccc2OC)c(=O)n1-c1ccccc1,"inconclusive: 14.1 µM [inhibitor, single point]",
COc1cccc(/C=C/c2nc(C#N)c(NCCN(C)C)o2)c1,,inactive: 22% [at 46.1 µM]
CC(C)c1ccccc1NC(=O)COC(=O)CCN1C(=O)/C(=C\C=C\c2ccccc2)SC1=S,"inconclusive: 5.01 µM [inhibitor, full curve, poor fit]",
COc1cccc(OCc2cc(C(=O)N(C)Cc3nc(C)cs3)no2)c1,"inconclusive: 35.5 µM [inhibitor, single point]",
CCOC(=O)c1[nH]c(C)c(CCC(=O)NCc2ccc(N(C)C)cc2)c1C,,inactive: 1.12% [at 46.1 µM]
Cc1csc(N(C(=O)c2ccc(S(=O)(=O)N(C)C)cc2)c2ccccc2)n1,"inconclusive: 2.82 µM [inhibitor, partial curve, poor fit]",
COc1ccc(S(=O)(=O)N(Cc2cc3cc(C)ccc3[nH]c2=O)CC2CCCO2)cc1 (stereo not drawn),"inconclusive: 16.4 µM [inhibitor, partial curve, poor fit]",
Cc1cccc(/C(N)=N/OC(=O)N2CCOCC2)c1,active: 16.4 µM,
Cc1nc(SC2CC(=O)N(c3ccccc3)C2=O)n[nH]1 (stereo not drawn),,inactive: 0.551%
Cc1ccc(CN(C(=O)c2csnn2)C(C(=O)NC2CCCC2)c2ccco2)cc1 (stereo not drawn),"inconclusive: 4.47 µM [inhibitor, full curve, poor fit]",

# Laid out differently: entries from further up.
Structure (SMILES) | Potency | activity change, negative = inhibition
CCN(CC)C(=O)CSc1nc2c(sc(=S)n2-c2ccccc2OC)c(=O)n1-c1ccccc1 | inconclusive: 14.1 µM [inhibitor, single point] | 
Cc1ccc(CN(C(=O)c2csnn2)C(C(=O)NC2CCCC2)c2ccco2)cc1 (stereo not drawn) | inconclusive: 4.47 µM [inhibitor, full curve, poor fit] | 
